Among the data in article PMC6091194 are binding values, retold here.

The chains behind the UniProt entries cited, without tags or fusion partners.
UniProt Q08460: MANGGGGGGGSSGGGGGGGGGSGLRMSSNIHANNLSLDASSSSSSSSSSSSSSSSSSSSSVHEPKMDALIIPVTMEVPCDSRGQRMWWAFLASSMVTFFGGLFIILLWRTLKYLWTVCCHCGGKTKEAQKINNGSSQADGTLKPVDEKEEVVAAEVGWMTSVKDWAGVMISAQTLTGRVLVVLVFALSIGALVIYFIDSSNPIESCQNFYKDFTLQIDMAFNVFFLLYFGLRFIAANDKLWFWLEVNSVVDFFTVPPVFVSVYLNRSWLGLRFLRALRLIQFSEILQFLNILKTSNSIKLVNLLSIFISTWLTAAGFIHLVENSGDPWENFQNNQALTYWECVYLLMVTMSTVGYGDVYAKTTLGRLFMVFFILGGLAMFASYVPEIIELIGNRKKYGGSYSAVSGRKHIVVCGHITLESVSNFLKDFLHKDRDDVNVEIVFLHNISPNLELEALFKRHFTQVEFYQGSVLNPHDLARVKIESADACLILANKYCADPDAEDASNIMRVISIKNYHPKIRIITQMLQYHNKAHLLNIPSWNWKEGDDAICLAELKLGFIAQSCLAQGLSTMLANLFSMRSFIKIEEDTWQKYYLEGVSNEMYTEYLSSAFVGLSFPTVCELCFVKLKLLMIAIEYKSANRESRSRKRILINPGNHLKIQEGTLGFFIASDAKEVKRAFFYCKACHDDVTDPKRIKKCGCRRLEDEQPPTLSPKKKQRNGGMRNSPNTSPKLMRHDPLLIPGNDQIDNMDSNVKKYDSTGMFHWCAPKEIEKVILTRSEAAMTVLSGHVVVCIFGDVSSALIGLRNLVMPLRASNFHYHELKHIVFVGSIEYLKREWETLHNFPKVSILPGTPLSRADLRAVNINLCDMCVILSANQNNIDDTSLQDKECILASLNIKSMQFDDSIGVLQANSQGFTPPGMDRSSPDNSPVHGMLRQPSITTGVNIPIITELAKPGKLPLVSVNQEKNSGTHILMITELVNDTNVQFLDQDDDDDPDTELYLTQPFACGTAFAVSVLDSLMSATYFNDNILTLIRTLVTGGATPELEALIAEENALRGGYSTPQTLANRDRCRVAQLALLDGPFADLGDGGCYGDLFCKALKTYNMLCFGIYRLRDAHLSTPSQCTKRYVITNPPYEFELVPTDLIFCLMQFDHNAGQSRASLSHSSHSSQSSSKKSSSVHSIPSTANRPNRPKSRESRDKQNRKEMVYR

Results are given in words; binding and its absence hold for the method and conditions named. In cells and extracts the contact can be indirect. Some binding calls cover weakened binding; strength is not graded here.

Test [1] addresses T1, Secreted protein acidic and cysteine rich (SPARC) (mouse (endogenous in CBA/J mouse cochlear sensory epithelium)) (UniProt P07214).
T1 sequence: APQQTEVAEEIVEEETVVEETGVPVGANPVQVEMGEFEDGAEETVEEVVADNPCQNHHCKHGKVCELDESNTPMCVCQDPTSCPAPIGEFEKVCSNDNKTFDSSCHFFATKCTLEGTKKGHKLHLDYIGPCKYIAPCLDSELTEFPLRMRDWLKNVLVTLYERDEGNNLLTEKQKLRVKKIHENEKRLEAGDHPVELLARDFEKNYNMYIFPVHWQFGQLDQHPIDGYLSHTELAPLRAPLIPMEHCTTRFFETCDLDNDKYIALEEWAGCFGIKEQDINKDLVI
As to the kind of experiment: co-IP; reciprocal co-IP from P3 mouse cochlear sensory epithelium lysate with antibodies to SPARC or Parvin, Protein G beads; blots probed with BKα or Ilk polyclonal antibody; control rabbit IgG.

Test [2] has as its target T2, Integrin-linked protein kinase (Ilk) (mouse (endogenous in CBA/J mouse cochlear sensory epithelium)) (UniProt O55222).
T2 sequence: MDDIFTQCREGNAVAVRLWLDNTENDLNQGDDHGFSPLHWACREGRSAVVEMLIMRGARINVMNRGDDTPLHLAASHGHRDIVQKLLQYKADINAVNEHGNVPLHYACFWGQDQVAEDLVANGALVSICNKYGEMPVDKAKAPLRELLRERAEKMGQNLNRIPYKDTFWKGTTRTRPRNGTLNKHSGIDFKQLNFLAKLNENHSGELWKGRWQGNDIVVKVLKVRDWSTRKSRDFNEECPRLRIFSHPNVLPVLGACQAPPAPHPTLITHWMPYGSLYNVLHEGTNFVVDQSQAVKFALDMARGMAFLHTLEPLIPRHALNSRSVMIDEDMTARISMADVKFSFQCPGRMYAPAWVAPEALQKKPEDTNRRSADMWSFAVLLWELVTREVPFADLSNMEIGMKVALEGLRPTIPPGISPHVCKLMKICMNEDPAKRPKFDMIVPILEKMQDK
As to the kind of experiment: co-IP; immunocomplex capture from P3 mouse cochlear sensory epithelium lysate with anti-Kcnma1 or anti-Ilk polyclonal antibody, rec-Protein G Sepharose 4B beads, 4 °C; washes in PBS and PBS/0.1% Triton X-100; blots probed with anti-SPARC or anti-Parvin; control rabbit IgG.

The target in test [3] is Kcnma1, large conductance calcium-activated potassium channel (mouse (endogenous in CBA/J mouse cochlear sensory epithelium)) (UniProt Q08460). The test is described as above.

Take “Kcnma1, large conductance calcium-activated potassium channel (from UniProt Q08460 1-1209)”: the binding result in test [1] is given as “binds”.

B1: Parvin α (actopaxin) (protein, UniProt Q9EPC1 1-372)
chain: MATSPQKSPLVPKSPTPKSPPSRKKDDSFLGKLGGTLARRKKAKEVSEFQEEGMNAINLPLSPISFELDPEDTLLEENEVRTMVDPNSRNDPKLQELMKVLIDWINDVLVGERIIVKDLAEDLYDGQVLQKLFEKLESEKLNVAEVTQSEIAQKQKLQTVLEKINETLKLPPRSIKWNVDSVHAKNLVAILHLLVALSQYFRAPIRLPDHVSIQVVVVQKREGILQSRQIQEEITGNTEALSGRHERDAFDTLFDHAPDKLNVVKKTLITFVNKHLNKLNLEVTELETQFADGVYLVLLMGLLEGYFVPLHSFFLTPDSFEQKVLNVSFAFELMQDGGLEKPKPRPEDIVNCDLKSTLRVLYNLFTKYRNVE
In the case of B1, the binding result in test [2] is “binds”.

B2: Secreted protein acidic and cysteine rich (SPARC) (protein, UniProt P07214 18-302)
chain: APQQTEVAEEIVEEETVVEETGVPVGANPVQVEMGEFEDGAEETVEEVVADNPCQNHHCKHGKVCELDESNTPMCVCQDPTSCPAPIGEFEKVCSNDNKTFDSSCHFFATKCTLEGTKKGHKLHLDYIGPCKYIAPCLDSELTEFPLRMRDWLKNVLVTLYERDEGNNLLTEKQKLRVKKIHENEKRLEAGDHPVELLARDFEKNYNMYIFPVHWQFGQLDQHPIDGYLSHTELAPLRAPLIPMEHCTTRFFETCDLDNDKYIALEEWAGCFGIKEQDINKDLVI
In the case of B2, in test [3], the binding entry is given as “binds”.
